Data reported in article PMC13035910, “Dbf4-dependent kinase finetunes Ino80 function at chromosome replication origins” (Nature Communications, 2026).
These are yes or no findings as the source states them, for the method shown. Some results given as binding are weak or reduced against the parent protein; the word gives no strength.

Amino acid sequences for entries named in this document (tags omitted). A change or cut given only in a name is not applied to a line headed by its entry.
UniProt P06243: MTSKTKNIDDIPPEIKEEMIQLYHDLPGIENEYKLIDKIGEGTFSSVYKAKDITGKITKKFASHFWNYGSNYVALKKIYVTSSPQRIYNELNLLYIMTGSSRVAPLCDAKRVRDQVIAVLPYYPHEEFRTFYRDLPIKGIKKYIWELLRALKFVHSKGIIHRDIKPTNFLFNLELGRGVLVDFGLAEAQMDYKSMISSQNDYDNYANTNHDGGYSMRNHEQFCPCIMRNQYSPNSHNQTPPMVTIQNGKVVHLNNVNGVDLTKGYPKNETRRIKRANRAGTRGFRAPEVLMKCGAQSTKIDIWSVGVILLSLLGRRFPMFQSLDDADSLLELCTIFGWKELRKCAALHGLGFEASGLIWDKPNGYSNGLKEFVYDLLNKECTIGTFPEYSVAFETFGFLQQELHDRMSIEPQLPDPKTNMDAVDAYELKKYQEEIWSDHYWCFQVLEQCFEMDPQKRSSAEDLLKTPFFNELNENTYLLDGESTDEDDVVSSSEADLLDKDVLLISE
UniProt P32325: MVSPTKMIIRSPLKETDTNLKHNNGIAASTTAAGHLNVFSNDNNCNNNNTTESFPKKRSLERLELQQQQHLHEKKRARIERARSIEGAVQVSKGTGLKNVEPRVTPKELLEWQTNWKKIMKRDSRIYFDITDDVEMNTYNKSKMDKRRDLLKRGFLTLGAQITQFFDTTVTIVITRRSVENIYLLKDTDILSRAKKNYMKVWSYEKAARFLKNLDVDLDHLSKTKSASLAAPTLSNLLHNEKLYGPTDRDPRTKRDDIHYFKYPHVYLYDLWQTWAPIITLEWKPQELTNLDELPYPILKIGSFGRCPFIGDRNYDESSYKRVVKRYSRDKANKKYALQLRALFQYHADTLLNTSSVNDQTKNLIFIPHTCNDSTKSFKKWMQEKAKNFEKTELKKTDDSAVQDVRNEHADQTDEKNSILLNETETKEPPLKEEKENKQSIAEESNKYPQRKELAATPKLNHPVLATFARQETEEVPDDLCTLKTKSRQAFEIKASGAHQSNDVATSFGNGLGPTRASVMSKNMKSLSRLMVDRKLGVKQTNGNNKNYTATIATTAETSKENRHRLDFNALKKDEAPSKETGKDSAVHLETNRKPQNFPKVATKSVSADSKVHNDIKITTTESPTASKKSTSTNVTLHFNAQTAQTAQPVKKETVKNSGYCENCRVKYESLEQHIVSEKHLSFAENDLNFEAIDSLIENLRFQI
UniProt P53115: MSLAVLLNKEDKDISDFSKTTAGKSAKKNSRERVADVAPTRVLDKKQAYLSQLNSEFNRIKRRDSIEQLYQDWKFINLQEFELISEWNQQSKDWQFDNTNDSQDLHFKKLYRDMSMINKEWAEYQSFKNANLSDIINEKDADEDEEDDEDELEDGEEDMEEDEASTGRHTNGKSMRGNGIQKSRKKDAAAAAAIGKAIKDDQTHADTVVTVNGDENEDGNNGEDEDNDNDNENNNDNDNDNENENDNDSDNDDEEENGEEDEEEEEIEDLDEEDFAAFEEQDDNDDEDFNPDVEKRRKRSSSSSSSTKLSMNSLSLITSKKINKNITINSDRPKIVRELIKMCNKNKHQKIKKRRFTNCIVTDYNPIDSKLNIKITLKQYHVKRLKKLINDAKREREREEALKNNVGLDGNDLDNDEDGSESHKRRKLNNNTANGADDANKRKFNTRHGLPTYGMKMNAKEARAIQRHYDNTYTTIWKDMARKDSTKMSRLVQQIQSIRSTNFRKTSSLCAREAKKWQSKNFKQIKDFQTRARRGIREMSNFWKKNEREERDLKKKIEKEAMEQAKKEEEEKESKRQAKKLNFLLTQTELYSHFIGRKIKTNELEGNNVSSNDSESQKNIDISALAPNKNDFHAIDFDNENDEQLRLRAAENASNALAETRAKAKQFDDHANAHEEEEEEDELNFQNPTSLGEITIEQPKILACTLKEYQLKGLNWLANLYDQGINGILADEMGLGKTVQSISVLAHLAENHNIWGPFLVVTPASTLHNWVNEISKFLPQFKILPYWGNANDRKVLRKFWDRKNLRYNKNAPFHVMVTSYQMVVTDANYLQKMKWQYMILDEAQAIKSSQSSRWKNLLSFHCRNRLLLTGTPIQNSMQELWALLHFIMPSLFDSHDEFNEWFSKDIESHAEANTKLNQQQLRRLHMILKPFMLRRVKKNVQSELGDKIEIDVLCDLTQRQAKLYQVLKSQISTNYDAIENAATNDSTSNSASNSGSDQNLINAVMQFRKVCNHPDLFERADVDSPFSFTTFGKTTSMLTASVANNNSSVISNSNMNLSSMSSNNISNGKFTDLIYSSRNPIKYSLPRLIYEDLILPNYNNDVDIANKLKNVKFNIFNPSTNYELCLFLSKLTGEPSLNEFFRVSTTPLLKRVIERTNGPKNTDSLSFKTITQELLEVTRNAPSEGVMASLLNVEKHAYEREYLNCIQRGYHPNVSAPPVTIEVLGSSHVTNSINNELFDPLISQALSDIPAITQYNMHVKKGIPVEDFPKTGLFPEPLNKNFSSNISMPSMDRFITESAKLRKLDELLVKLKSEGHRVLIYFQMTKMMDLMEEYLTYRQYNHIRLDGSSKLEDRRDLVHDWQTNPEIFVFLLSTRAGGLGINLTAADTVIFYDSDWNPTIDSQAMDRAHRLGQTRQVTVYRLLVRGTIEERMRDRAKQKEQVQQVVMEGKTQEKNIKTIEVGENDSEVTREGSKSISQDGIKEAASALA

Molecular target: Dbf4-Dependent Kinase (DDK) (yeast) (UniProt P06243+P32325)
Assay: pull-down; the paper calls it Co-IP: 100 nM INO80 and 150 nM DDK incubated 1 h in 100 mM potassium-glutamate, 25 mM HEPES-KOH pH 7.6, 10 mM Mg(OAc)2, 0.02% NP-40, 1 mM DTT, 10 mM ATP; bound to calmodulin affinity resin with 2 mM CaCl2 at room temperature; eluted with 3 mM EGTA; immunoblot with anti-FLAG and anti-CBP; both purified

binding: binds
Substance: INO80 chromatin remodelling complex (wild type) (from UniProt P53115 1-1489; Q03435 1-203; P43579 1-692; Q12345 1-250; P40060 1-125; P80428 1-489; Q12386 1-881; P60010 1-375; P35189 1-244; Q08561 1-116; Q03940 1-463; Q12464 1-471; P53946 1-755; P40154 1-320; P32617 1-166)
